Measurements taken from patent US20240082272A1, “COMPOSITIONS AND METHODS FOR TREATING WNT-DRIVEN CANCER” (The Regents of the University of Michigan, priority 2020, published 2024).

Test system: NCI-H295R
Assay: cells
Settings: Homo sapiens, read-out: IC-50 (dose that induces a 50% reduction in viability)

CCN(c1cc(-c2ccc(CN3CCOCC3)cc2)cc(C(=O)NCc2c(C)cc(C)[nH]c2=O)c1C)C1CCOCC1 [EPZ-6438] showed an IC50 of 62 µM.
